# Percent effect of library compounds

Protein sequences, listed by entry. Tags and fused reporters are not part of them. Residues count along the entry.
UniProt P9WNZ1, whole entry: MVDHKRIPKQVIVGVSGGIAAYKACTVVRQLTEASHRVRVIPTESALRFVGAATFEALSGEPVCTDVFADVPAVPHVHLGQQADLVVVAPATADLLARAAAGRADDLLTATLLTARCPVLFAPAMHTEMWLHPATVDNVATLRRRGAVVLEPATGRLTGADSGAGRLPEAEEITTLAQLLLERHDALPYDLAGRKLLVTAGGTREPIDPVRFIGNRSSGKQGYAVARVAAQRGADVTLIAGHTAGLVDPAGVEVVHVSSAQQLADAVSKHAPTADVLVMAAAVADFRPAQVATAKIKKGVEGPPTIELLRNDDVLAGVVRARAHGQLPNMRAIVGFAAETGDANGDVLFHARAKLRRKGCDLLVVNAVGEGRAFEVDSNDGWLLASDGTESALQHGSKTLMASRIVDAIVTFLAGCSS
UniProt P9WFT3, whole entry: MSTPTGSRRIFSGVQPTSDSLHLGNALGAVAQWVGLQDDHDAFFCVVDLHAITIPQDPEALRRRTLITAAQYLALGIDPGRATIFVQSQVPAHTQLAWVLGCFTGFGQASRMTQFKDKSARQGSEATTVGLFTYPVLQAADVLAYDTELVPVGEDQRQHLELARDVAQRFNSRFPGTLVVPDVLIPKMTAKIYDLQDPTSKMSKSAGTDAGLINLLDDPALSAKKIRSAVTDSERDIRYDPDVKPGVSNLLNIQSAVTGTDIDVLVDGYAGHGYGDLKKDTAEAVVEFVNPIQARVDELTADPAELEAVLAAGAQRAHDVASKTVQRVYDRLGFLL
UniProt A4I591, 1-473: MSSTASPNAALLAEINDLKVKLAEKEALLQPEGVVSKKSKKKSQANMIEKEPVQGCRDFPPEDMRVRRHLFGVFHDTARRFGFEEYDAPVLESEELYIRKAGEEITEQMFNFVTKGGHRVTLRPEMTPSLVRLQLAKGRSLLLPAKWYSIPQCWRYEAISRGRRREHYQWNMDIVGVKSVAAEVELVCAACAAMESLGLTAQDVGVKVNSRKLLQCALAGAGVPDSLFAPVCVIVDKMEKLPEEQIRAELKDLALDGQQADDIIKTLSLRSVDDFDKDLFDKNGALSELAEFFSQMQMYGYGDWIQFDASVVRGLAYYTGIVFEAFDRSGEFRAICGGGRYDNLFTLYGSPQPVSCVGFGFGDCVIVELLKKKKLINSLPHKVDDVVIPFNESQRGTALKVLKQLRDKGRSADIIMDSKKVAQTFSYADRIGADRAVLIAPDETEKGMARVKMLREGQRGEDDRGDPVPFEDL

Source: ChEMBL document CHEMBL3988442, “University of Dundee, Small-Polar-MMV Screening Library” (2021).

A: 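Coenzyme A biosynthesis protein CoaBC, Mycobacterium tuberculosis (UniProt P9WNZ1). Enzyme assay of CoaBC with a phosphate dye (Biomol Green) read at 650 nm. Compounds at 30 µM. Direction is inferred from only a few compounds that gave an IC50; most scored high, so higher reads as stronger inhibition. Most strong results did not repeat in a second test. Size under these conditions: about 67,000 compounds, about 40 of them at 50% or above in at least one test.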
B: 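Assay of Toxoplasma gondii numbers, read through their beta-galactosidase reporter with a colour substrate. Compounds at 10 µM. The record gives no direction; the compounds picked for IC50 retests had high values, so higher reads as fewer parasites. Of about 67,000 compounds tested this way, about 260 (0.38%) reached 50% or more in at least one test.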
C: 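Cell assay of Leishmania donovani living inside macrophages; the read-out is not stated. Tested at 30 µM. Higher reads as stronger inhibition (inferred: compounds with an IC50 in retests scored well above the rest). Size under these conditions: about 69,000 compounds, about 1,000 of them at 50% or above in at least one test.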
D: 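Tryptophan-tRNA ligase, Mycobacterium tuberculosis (UniProt P9WFT3). Enzyme assay of tryptophanyl-tRNA synthetase; the read-out is not stated. Compounds at 10 µM. Direction is not recorded; retested compounds ran higher, which suggests that high means inhibition. Of about 65,000 compounds tested this way, about 64 (0.098%) reached 50% or more in at least one test.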
E: 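Histidine-tRNA ligase, Leishmania infantum (UniProt A4I591). Enzyme assay of histidyl-tRNA synthetase; the read-out is not stated. Concentration: 30 µM. The record gives no direction; compounds that gave an IC50 in retests scored well above the rest, so higher reads as stronger inhibition. The assay is labelled LdHisRS but filed under L. infantum. Of about 69,000 compounds tested this way, about 410 (0.6%) reached 50% or more in at least one test.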

Each number is a percent effect as filed. The controls that fix the scale are not given in the record; negative values are as filed. Compounds were drawn at random from those tested, without regard to their results. Two or more numbers in one place are separate tests of the same structure; such repeats can differ widely. A dash means the value is not listed here; it may have been measured.

structure	A	B	C	D	E
Cc1nn(C)c(N2CCOCC2)c1CNCc1ccoc1C	5.222	0.892	18	-6.27	18.58
CC(C)c1cc(CN2CCN(c3cccnc3)CC2)n(C)n1	-0.5115	14.7	1.573	-0.315	9.836
Cc1c(-c2cc(C(=O)N3CCc4ncc(Cl)cc4C3)on2)cnn1C	-6.833	-2.511	30.46	-4.147	8.696
CN(C(=O)Cc1ccc2c(c1)OCCO2)C1CCCC1	2.294	-2.262	4.868	2.225	14.29
Cc1nc(CN2CCN(CCOc3ccc(C(C)C)c(C)c3)CC2)no1	-0.9126	-1.409	32.95	8.898	20.18
Cc1nc(CNCC2CNc3ccnn3C2)cs1 (configuration not stated)	-16.22	20.87	-8.655	-2.637	13.33
Cc1cc(-c2cnc(NC3CC3)nc2-c2ccoc2C)on1	-1.225	14.01	16.72	-	-3.125
Cc1noc([C@@H]2C[C@H]3OCC[C@H]3N(S(=O)(=O)N(C)C)C2)n1	5.008	-	-	3.946	7.447
CCn1c(CN2CCCC2)nnc1C1CCN(S(=O)(=O)CC)CC1	9.476	3.06	17.48	0	27.27
Cc1ccc(-c2nc(CCNC(=O)NC3CCN(C)CC3)co2)cc1	9.257	5.672	21.81	-0.2534	22.97
Cc1cnn(C2CN(CCCOc3ccc(C#N)cc3)C2)c1	-3.899	-15.7	1.818	-0.5442	23.01
Cc1cc2nc(C(C)C)cc(NCC(c3ccccn3)N(C)C)n2n1 (configuration not stated)	2.169	7.369	25.16	-1.359	18.68
Cc1c(C(=O)NCc2ccnc(OCC(F)(F)F)c2)cnn1C	1.141	-33.8	34.3	-0.9416	21.43
COCCCC(=O)Nc1cccnc1N1CCCCC1	3.194	15.6	-17	2.016	7.143
COc1ccccc1CN1CCCC(n2cccn2)C1 (configuration not stated)	2.439	1.326	18.65	-4.95	2.521
Fc1cnc(N2CCCC3(CCN(Cc4ccsc4)C3)C2)nc1 (configuration not stated)	4.505	-	-	-1.822	21.57
COC(=O)[C@@H]1CN(C(=O)NC(C)C)CCN1S(=O)(=O)c1ccccc1	6.998	11.15	10.42	-0.6777	25
Cc1nn(C(C)(C)C)c(C)c1C(=O)NCC1(C(N)=O)CCOCC1	-1.474	-5.361	3.984	0.2564	12.9
CNC(=O)CN1CCC(NC(=O)N(C)Cc2cc(C)on2)CC1	7.179	-5.375	23.14	-0.7037	21.33
CN(C)C(=O)COCc1nnc2n1CCN(Cc1ccsc1)C2.O=C(O)C(F)(F)F	-	-17.33	11.37	-	-
COc1ccccc1C(=O)Nc1cc(CC(C)C)nn1C	3.484	5.544	-14.34	-3.116	10.43
COc1ccc(-c2nc(C#N)c(N(C)C)o2)cc1OC	-2.071	-6.032	-0.2723	-3.86	14.58
O=C(NCC(=O)N1CCC2(CC1)OCCO2)c1ccoc1	-7.507	4.24	39.22	-0.5111	13.68
CCN(CC)C(=O)c1nc2c(s1)CCN(Cc1cccc(OC)c1)CC2	2.5	-	-	-3.315	19.66
CCN(CC)S(=O)(=O)c1ccc(C(=O)NC(C)(C#N)C2CC2)cc1 (configuration not stated)	0.9346	15.66	-7.332	-4.665	4.425
O=c1c2sccc2nc2n1CCN(Cc1cccs1)CC2	-2.5	-2.114	28.95	-1.589	16.67
CN(CC(O)C1CC1)C(=O)c1ccc(-c2nc(C3CC3)n[nH]2)cc1 (configuration not stated)	-0.2451	-0.05294	12.7	5.926	17.78
CC(C(=O)Nc1nccs1)N(C)Cc1cccc(C#N)c1 (configuration not stated)	9.218	28.2	11.91	-1.497	15
CCOC(=O)c1cnn(C2CCN(C(=O)CCC(C)C)CC2)c1N	5.607	8.938	11.45	-2.431	18.58
[H][C@]12CCN(S(=O)(=O)Cc3ccccc3)[C@@]1([H])CC[C@@H](COC)O2	-	4.171	3.485	-	-
COCCN1CCC2(CC1)CN(C(=O)N(C)C)c1ccc(C)cc12.O=C(O)C(F)(F)F	-	-0.269	-13.03	-	-
O=C(O)C(c1ccc(Cl)c(F)c1)N1CCN(Cc2ccccn2)CC1 (configuration not stated)	2.381	-3.973	61.2	-0.486	11.11
CN(C)CCN1CC(C(=O)NCc2ccc(C#N)cc2)CC1=O (configuration not stated)	3.599	4.909	15.52	5.255	8.333
COC(=O)c1sccc1S(=O)(=O)N1CCc2c(ncnc2N(C)C)C1	-0.7673	8.933	-18.65	3.622	11.48
COc1ccccc1CC(=O)NS(=O)(=O)c1ccc(C(N)=O)cc1	3.373	-2.541	5.943	-0.2398	0
Cc1cnc(C(=O)N2CCN(c3ncc4c(n3)CCOC4)CC2)cn1	-17.43	-0.9864	-24.22	-4.243	12.59
CCOCC1CN(Cc2csc(C)n2)Cc2nccn2C1 (configuration not stated)	3.34	-	-	5.568	16.22
COCCOCCSc1nnc(Cc2ccccc2F)o1	0.2049	-8.864	-2.751	-5.415	1.429
COCC1CN(C(=O)c2cccn2C)Cc2c1cnn2CC1CC1.O=C(O)C(F)(F)F (configuration not stated)	-	-4.176	17.87 & 23.56	-	-
CC(C)CN1Cc2nc(N3CCC(O)CC3)ncc2C1=O	2.296	-26.64	-4.324	2.801	25.93
CCN(CCc1nc2cc(C)ccc2[nH]1)C(=O)[C@@H](N)Cc1c[nH]cn1	9.545	9.353	20.73	-3.717	10.96

The first 4 entries again:

- Cc1nn(C)c(N2CCOCC2)c1CNCc1ccoc1C : A: 5.222%; B: 0.892%; C: 18%; D: -6.27%; E: 18.58%
- CC(C)c1cc(CN2CCN(c3cccnc3)CC2)n(C)n1 : A: -0.5115%; B: 14.7%; C: 1.573%; D: -0.315%; E: 9.836%
- Cc1c(-c2cc(C(=O)N3CCc4ncc(Cl)cc4C3)on2)cnn1C : A: -6.833%; B: -2.511%; C: 30.46%; D: -4.147%; E: 8.696%
- CN(C(=O)Cc1ccc2c(c1)OCCO2)C1CCCC1 : A: 2.294%; B: -2.262%; C: 4.868%; D: 2.225%; E: 14.29%